From publication PMC7790824
These are yes or no findings as the source states them, for the method shown. In cells and extracts the contact can be indirect. Some results given as binding are weak or reduced against the parent protein; the word gives no strength.

Biological target: T1, TAK1 (mouse (endogenous in primary cortical neurons)), Q62073
T1 chain: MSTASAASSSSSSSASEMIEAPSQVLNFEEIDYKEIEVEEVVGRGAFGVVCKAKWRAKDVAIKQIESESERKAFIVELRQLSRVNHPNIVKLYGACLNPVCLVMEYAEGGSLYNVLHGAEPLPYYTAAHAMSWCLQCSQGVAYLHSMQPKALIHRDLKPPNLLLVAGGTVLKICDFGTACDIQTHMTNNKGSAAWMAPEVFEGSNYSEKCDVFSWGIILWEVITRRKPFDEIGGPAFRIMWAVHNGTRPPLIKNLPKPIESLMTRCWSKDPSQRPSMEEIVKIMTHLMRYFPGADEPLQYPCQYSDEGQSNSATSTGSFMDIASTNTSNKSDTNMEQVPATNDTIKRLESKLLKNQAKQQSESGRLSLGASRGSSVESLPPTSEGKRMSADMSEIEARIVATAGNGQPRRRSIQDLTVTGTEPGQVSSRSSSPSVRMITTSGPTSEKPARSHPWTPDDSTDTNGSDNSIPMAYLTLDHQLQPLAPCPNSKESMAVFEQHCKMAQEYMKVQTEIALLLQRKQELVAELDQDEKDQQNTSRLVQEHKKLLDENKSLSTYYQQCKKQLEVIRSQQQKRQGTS
Assay: co-IP; SAH (hemoglobin-treated) primary neurons lysed with RIPA buffer; precleared extracts incubated with 1 ug of TRAF3 antibody, TAK1 antibody or normal mouse IgG and protein A/G-agarose beads at 4 °C overnight; blotted with TAK1 and TRAF3 antibodies
Conditions: remark: other sources report otherwise

binding: binds
B1: TRAF3, Q60803 1-567 (protein)
chain: MESSKKMDAAGTLQPNPPLKLQPDRGAGSVLVPEQGGYKEKFVKTVEDKYKCEKCRLVLCNPKQTECGHRFCESCMAALLSSSSPKCTACQESIIKDKVFKDNCCKREILALQVYCRNEGRGCAEQLTLGHLLVHLKNECQFEELPCLRADCKEKVLRKDLRDHVEKACKYREATCSHCKSQVPMIKLQKHEDTDCPCVVVSCPHKCSVQTLLRSELSAHLSECVNAPSTCSFKRYGCVFQGTNQQIKAHEASSAVQHVNLLKEWSNSLEKKVSLLQNESVEKNKSIQSLHNQICSFEIEIERQKEMLRNNESKILHLQRVIDSQAEKLKELDKEIRPFRQNWEEADSMKSSVESLQNRVTELESVDKSAGQAARNTGLLESQLSRHDQMLSVHDIRLADMDLRFQVLETASYNGVLIWKIRDYKRRKQEAVMGKTLSLYSQPFYTGYFGYKMCARVYLNGDGMGKGTHLSLFFVIMRGEYDALLPWPFKQKVTLMLMDQGSSRRHLGDAFKPDPNSSSFKKPTGEMNIASGCPVFVAQTVLENGTYIKDDTIFIKVIVDTSDLPDP
